Assay results taken from patent publication US20130156781A1.
Results are given in words; binding and its absence hold for the method and conditions named. Some entries that bind do so weakly or less than the wild type.

Experiments:
[1] = biological target: Recombinant human rTRAIL receptor 1 (DR4), extracellular part, amino acids 25-239 (human) (UniProt O00220); assay: ELISA on coated DR4
[2] = biological target: T1, Cell surface-associated native DR4 on ST486 Burkitt's lymphoma cells (human) (UniProt O00220); assay: flow cytometry on ST486 cells
T1 sequence: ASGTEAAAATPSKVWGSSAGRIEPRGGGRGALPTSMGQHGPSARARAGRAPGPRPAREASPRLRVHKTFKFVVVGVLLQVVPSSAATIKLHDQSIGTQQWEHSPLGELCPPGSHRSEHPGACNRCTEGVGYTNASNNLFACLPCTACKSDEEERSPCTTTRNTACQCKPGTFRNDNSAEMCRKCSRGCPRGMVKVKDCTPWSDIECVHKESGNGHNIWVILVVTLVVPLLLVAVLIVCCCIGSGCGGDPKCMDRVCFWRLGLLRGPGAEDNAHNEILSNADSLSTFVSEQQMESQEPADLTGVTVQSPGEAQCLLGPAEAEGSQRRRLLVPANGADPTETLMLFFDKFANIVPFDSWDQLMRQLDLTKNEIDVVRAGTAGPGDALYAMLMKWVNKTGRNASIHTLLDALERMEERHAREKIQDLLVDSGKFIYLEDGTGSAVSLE

[3] = biological target: T1, Cell surface-associated native DR4 on ST486 Burkitt's lymphoma cells (human); assay: flow cytometry on ST486 cells, 24 nM antibody
[4] = biological target: Recombinant human rTRAIL receptor 1 (DR4), extracellular part, amino acids 25-239 (human) (UniProt O00220); assay: ELISA on coated recombinant DR4, IgG diluted 1:5 from 1000 nM to 0.0128 nM, OD405

Measured: binding

B1: m921 IgG1 (antibody, V domains shown)
VH: QVQLQQSGPGLVKPSQTLSLTCAISGDSVSSNSAAWNWIRQSPSRGLEWLGRTYYRSKWYNDYAVSVKGRITINPDTSKNQFSLQLNSVTPEDTAVYYCARDLGVAAADSYYYYGMDVWGQGTTVTVSS
VL: QPVLTQPPSASATPGQRVTISCSGSSSNIGSNTLDWFQQLPGTAPKLLIFDTNRRPSGVPDRFSGSKSGTSASLAISGLQAEDEAVYFCATWDNSLNGAVFGGGTKLSVPR
binds: all assays above
